Test results as given in PubChem BioAssay AID493014 (National Center for Advancing Translational Sciences (NCATS), 2011).
The list shows a part of the results. Shown are side measurements of this screen, not its main read-out; they come without a call. The list favours compounds with an active or inconclusive main result. The note in brackets gives the kind of curve behind each potency; many fits are weak.

Assay: qHTS Assay to Find Inhibitors of Chronic Active B-Cell Receptor Signaling
Conditions: ABC-DLBCL IkBa-CBG/CBR reporter, luminescence ratio (green luciferase fused to IkBa over red control in TMD8 lymphoma cells), 4 h
Summary of the method: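 Concentration-response series (up to 46 uM) were applied to TMD8 dual-reporter cells for 4 h at 37C with doxycycline. Green/red ratio, after filter-overlap correction, defined %Activity; red signal alone was normalised to basal cells and zero luminescence.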

[1] = measured here: CBR red luminescence, cell number

| SMILES | AC50 [1] | AC50 (measured here: IkBa-CBG green luminescence) |
| --- | --- | --- |
| CCc1nn(CC(=O)NCc2cccnc2)c(=O)c2cc3occc3n12 | 10 µM [rising, partial curve, poor fit] |  |
| COc1cc(C(=S)N2CCCCC2)ccc1OCC(=O)Nc1ccc(F)cc1 | 5.62 µM [falling, partial curve] |  |
| N#Cc1ccc(NC(=S)Nc2ccccc2)cc1 | 29.1 µM [rising, single point] |  |
| O=C(Nc1cccc(Cl)c1)c1ccc(F)c(S(=O)(=O)NCc2ccc3c(c2)OCO3)c1 | 29.1 µM [falling, single point] |  |
| O=C(NCCc1cccs1)c1ccc(Cl)cc1 | 11.2 µM [falling, partial curve, poor fit] |  |
| CC(C)CCc1noc(CN2CCC(C(=O)N3CCOCC3)CC2)n1 | 35.5 µM [rising, single point] |  |
| CCCCN(C(=S)Nc1cccc(SC)c1)C1CCN(C(C)=O)CC1 | 6.31 µM [rising, partial curve] |  |
| O=c1oc(CCO)cc2ccc(-c3ccc4[nH]ccc4c3)cc12 | 20.6 µM [falling, single point] |  |
| COc1ccc2c(c1[N+](=O)[O-])CCC/C2=N/OC(=O)c1ccccc1SC | 10 µM [rising, partial curve] |  |
| CN(Cc1ccccc1)C(=O)CCCn1c(=O)[nH]c2cc(Cl)ccc2c1=O | 5.17 µM [falling, partial curve, poor fit] |  |
| COc1cc(OC)cc(C(=O)NCC(=O)OC(C)C(=O)NC(C)C2CC3CCC2C3)c1 (configuration not stated) | 6.51 µM [rising, single point] |  |
| CNC(=O)NC(=O)CSc1nnc(C(F)(F)F)n1C | 0.0259 µM [falling, full curve, poor fit] |  |
| COc1ccc(OC)c(S(=O)(=O)N2CCN(C34CC5CC(CC(C5)C3)C4)CC2)c1 | 28.2 µM [rising, partial curve, poor fit] |  |
| Fc1ccccc1CSc1nc2ncccc2[nH]1 | 6.51 µM [falling, single point] |  |
| Cn1c(CNC(=O)C(Cc2ccccc2)NC(=O)c2ccccc2F)cc(=O)n(C)c1=O (configuration not stated) | 7.94 µM [rising, partial curve, poor fit] |  |
| CCCc1nnc(NC(=O)CSc2nnc(-c3ccco3)n2C)s1 | 1.26 µM [rising, full curve, poor fit] |  |
| O=C(COc1ccccc1F)Nc1ccccc1C(=O)NC1CC1 | 16.4 µM [rising, single point] |  |
| Cc1cccc2sc(NNC(=O)c3cc(=O)c4ccccc4o3)nc12 | 4.47 µM [falling, partial curve, poor fit] |  |
| CCOC(=O)C1C(=O)CC(C)(O)C(C(=O)OCC)C1c1ccc(OCC)cc1 (configuration not stated) | 0.00517 µM [rising, full curve, poor fit] |  |
| COc1ccccc1NC(=O)CSc1nnc(-c2ccncc2)o1 | 9.2 µM [falling, single point] |  |
| CCOC(=O)N1CCN(c2ccc(C(=O)c3ccccc3)cc2F)CC1 | 15.8 µM [falling, partial curve, poor fit] |  |

Gathered by group: those above with two or more sulfur atoms.

| SMILES | AC50 [1] | AC50 (measured here: IkBa-CBG green luminescence) |
| --- | --- | --- |
| CCCCN(C(=S)Nc1cccc(SC)c1)C1CCN(C(C)=O)CC1 | 6.31 µM [rising, partial curve] |  |
| CCCc1nnc(NC(=O)CSc2nnc(-c3ccco3)n2C)s1 | 1.26 µM [rising, full curve, poor fit] |  |

Next part:

| SMILES | AC50 [1] | AC50 (measured here: IkBa-CBG green luminescence) |
| --- | --- | --- |
| O=C(Nc1cccnc1Cl)c1cc(-c2ccc(F)cc2)on1 | 0.282 µM [falling, partial curve, poor fit] |  |
| Cc1nc(NCc2ccco2)c2oc3ccccc3c2n1 | 0.82 µM [falling, full curve, poor fit] |  |
| COc1cc(/C=C2\SC(=Nc3ccccc3)NC2=O)cc(Cl)c1O | 5.62 µM [falling, partial curve, poor fit] |  |
| Cc1c(Cl)cccc1NC(=O)CC1Sc2ccccc2NC1=O (configuration not stated) | 6.31 µM [falling, single point] |  |
| CCOC(=O)N1CCc2c(sc3ncn(C)c(=O)c23)C1 | 2.24 µM [rising, full curve, poor fit] |  |
| COc1ccc(Nc2nnc(SCC(=O)c3cc4ccccc4o3)s2)cc1 | 14.1 µM [rising, partial curve, poor fit] |  |
| CC(C(=O)O)n1c2ccccc2c2cn[nH]c(=O)c21 (configuration not stated) | 3.55 µM [falling, full curve, poor fit] |  |
| Oc1cccc(C=NCc2ccccc2)c1 | 29.1 µM [falling, single point] |  |
| CCOc1ccccc1NC(=O)CCN(c1ccc(C)cc1)S(=O)(=O)c1ccccc1 | 2.06 µM [falling, partial curve, poor fit] |  |
| CSC1=N/C(=C/c2cccnc2)C(=O)N1Cc1ccccc1 | 0.447 µM [falling, full curve, poor fit] |  |
| O=C(/C=C/c1ccco1)Nc1ccc2c(c1)OCCO2 | 5.01 µM [falling, full curve] | 11.2 µM [rising, partial curve, poor fit] |
| CN1CCN(C(=O)CCc2nc3ccccc3n2-c2ccccc2)CC1 | 3.66 µM [rising, partial curve, poor fit] |  |
| CC(C)N(CCNCC(O)COc1ccc(C(C)(C)c2ccccc2)cc1)C(C)C (configuration not stated) | 17.8 µM [falling, partial curve, poor fit] |  |
| CCN1CCN(c2nc3ccccc3nc2C(C#N)C(=O)OCc2ccccc2)CC1 (configuration not stated) | 3.55 µM [rising, full curve, poor fit] |  |
| O=S1(=O)N=C(N/N=C/c2ccccn2)c2ccccc21 | 9.2 µM [falling, partial curve] |  |
| CCC(C)[C@H](N)c1cn([C@@H](Cc2cc3ccccc3[nH]2)C(=O)N2CCNCC2)nn1 (some centres not stated) | 5.62 µM [falling, single point] |  |
| CC(OC(=O)c1cc(=O)[nH]c2ccccc12)C(=O)N1C(C)CCCC1C (configuration not stated) | 29.1 µM [rising, single point] |  |
| CCC1=NN(C(=O)COc2ccccc2)C(O)(c2ccc(Br)cc2)C1 (configuration not stated) | 15.8 µM [falling, partial curve] |  |
| c1ccc(-n2c(-c3ccncc3)nnc2N2CCOCC2)cc1 | 5.62 µM [falling, single point] |  |
| CN1C=CC=C/C1=C1\SC(=S)N(C2CCCCC2)C1=O | 1.58 µM [rising, partial curve, poor fit] |  |
